In publication PMC5386585:
No constants are given. Whether binding was seen depends on the method and setting. In cells and extracts the contact can be indirect. Some entries that bind do so weakly or less than the wild type.

The chains behind the UniProt entries cited, without tags or fusion partners. Where a name states a change or a piece, a line headed by the entry shows the natural chain unless it says otherwise. A line that says so, or that is headed by a name, gives the form on record, which may keep a tag or linker.
retinoic acid-related orphan receptor gamma t (RORγt), 3Flag-tagged (P51449, form named): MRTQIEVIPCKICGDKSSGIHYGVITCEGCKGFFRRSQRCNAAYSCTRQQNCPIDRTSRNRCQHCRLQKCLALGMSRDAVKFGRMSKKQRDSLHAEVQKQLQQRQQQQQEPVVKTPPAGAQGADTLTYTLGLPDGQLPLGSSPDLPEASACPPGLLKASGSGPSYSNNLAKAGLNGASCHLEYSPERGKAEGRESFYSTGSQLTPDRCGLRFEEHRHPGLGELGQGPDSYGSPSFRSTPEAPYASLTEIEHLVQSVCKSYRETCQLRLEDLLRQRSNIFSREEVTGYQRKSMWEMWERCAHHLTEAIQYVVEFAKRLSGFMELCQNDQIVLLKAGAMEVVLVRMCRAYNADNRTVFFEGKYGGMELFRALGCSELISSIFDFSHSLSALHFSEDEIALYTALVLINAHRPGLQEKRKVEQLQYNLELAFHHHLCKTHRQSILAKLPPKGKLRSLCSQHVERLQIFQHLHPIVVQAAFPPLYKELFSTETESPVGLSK
UniProt O75626: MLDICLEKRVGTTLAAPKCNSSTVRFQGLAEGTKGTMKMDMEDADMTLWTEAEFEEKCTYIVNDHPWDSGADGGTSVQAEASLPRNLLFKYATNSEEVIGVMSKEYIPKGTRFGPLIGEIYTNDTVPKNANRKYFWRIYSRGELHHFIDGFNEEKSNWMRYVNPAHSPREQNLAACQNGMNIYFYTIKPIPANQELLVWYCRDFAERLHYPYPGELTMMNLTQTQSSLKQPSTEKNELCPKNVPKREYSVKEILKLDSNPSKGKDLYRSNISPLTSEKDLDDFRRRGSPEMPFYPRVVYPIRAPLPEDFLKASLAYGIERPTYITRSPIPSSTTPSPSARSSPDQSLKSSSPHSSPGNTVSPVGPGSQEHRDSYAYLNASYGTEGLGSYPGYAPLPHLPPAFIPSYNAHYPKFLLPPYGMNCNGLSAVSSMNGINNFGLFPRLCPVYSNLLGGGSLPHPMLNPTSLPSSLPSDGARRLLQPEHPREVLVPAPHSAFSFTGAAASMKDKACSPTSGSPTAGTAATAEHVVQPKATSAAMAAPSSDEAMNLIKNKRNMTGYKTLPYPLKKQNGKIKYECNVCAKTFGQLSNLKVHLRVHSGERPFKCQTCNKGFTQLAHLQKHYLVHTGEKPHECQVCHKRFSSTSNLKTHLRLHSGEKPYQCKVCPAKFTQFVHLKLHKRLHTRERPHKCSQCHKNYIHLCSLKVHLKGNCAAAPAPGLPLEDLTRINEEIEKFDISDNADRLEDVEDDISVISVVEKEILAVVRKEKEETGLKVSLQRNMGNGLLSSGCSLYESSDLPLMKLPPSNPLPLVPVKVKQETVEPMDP
UniProt O75444: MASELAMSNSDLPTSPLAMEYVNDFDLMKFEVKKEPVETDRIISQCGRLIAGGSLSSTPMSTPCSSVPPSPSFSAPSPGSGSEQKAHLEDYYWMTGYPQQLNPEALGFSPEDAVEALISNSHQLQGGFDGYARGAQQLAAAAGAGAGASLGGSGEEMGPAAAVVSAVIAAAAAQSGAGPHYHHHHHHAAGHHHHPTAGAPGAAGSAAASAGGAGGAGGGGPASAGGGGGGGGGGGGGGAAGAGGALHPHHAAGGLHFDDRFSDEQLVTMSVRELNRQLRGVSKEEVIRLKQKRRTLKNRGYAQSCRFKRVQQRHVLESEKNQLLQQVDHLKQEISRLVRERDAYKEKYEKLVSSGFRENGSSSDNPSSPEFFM

Experiments:
[1] = molecular target: retinoic acid-related orphan receptor gamma t (RORγt), 3Flag-tagged (UniProt P51449); assay: co-IP; HEK-293T cells (2 x 10^6 cells/well) transfected with RORγ-Flag (5 μg) and or Blimp-1-Myc (5 μg) plasmids; immunoprecipitation and immunoblotting for c-Maf, Blimp-1 and RORγ; which protein was precipitated is not told
[2] = molecular target: B lymphocyte-induced maturation protein-1 (Blimp-1), Myc-tagged (UniProt O75626); assay: as above

Row | Substance | binding [1] | binding [2]
1 | B lymphocyte-induced maturation protein-1 (Blimp-1), Myc-tagged (from UniProt O75626 1-825) | binds | –
2 | c-musculoaponeurotic fibrosarcoma (c-Maf) (from UniProt O75444 1-373) | binds | binds
